These are yes or no findings as the source states them, for the method shown. In cells and extracts the contact can be indirect. A yes stands for co-enrichment or nearness to the bait. Other partners may have been found. Sequences can lack the tags named with a protein.
Molecular target: T1, 1×Flag-ADAR1p110 (Adenosine Deaminase Acting on RNA 1 p110) (UniProt P55265)
T1 sequence: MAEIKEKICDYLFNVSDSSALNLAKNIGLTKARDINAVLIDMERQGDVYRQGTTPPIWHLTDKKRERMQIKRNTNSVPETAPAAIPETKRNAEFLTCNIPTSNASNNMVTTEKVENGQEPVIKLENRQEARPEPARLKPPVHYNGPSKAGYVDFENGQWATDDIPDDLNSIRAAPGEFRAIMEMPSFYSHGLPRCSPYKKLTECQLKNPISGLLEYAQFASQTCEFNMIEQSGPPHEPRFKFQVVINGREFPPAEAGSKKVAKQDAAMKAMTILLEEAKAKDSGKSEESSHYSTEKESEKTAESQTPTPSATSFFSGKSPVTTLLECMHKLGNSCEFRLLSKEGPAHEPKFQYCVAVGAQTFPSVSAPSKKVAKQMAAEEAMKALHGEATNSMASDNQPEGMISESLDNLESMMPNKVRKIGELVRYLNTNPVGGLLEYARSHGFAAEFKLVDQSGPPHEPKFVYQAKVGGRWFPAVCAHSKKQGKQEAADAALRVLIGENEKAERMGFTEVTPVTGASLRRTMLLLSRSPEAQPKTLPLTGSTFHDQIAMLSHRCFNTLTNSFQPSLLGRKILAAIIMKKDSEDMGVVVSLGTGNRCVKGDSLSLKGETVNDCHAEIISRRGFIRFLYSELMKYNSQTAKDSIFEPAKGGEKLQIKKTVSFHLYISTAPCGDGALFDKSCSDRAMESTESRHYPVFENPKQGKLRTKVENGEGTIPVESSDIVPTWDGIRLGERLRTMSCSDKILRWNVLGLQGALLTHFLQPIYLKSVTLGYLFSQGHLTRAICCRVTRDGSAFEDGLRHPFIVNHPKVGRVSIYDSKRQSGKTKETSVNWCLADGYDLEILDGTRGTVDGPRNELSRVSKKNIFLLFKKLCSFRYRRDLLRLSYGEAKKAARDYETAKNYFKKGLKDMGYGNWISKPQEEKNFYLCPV
Test: affinity purification with mass spectrometry

Sequences of proteins named here, by UniProt entry; tags and fusion partners are left off.
UniProt Q9UQE7: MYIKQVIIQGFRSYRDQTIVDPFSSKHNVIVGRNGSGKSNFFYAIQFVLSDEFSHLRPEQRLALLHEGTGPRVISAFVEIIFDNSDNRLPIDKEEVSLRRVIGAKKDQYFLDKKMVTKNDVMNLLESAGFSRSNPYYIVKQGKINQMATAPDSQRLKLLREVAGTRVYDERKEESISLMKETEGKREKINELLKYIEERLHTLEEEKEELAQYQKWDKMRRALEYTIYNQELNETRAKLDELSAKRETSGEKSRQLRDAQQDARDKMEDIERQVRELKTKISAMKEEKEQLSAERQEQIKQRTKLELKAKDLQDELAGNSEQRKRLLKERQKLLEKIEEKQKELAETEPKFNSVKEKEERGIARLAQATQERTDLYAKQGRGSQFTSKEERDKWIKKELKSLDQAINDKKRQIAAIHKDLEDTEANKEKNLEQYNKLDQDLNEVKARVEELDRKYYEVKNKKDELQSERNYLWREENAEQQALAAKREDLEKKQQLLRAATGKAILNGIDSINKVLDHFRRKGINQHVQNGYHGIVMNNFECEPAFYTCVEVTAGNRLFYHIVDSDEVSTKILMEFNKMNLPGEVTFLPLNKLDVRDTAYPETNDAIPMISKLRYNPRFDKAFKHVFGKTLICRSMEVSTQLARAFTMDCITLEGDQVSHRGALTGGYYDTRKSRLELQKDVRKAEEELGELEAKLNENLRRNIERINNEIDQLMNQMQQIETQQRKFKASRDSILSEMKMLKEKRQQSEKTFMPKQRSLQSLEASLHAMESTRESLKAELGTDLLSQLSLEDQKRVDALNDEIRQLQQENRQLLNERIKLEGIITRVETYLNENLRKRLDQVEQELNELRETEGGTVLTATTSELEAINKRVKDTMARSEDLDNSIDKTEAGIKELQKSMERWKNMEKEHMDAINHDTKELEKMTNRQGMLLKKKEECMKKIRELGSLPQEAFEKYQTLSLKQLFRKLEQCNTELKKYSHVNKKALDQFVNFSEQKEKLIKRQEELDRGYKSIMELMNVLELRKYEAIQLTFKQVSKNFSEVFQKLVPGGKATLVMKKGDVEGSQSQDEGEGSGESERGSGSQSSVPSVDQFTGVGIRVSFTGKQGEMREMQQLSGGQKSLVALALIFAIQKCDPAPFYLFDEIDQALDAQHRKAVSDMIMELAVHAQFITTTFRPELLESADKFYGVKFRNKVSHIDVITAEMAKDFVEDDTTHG

With “Structural Maintenance of Chromosome 3 (SMC3) (from UniProt Q9UQE7 1-1217)” the binding was “binds”.
